In patent publication US20220175920A1:
These are yes or no findings as the source states them, for the method shown. Binding can be weak; no strength is given.

Target: cohesin-human CD40 ectodomain protein (P3398) (human)
Assay: SPR

B1: anti-CD40 12B4 human IgG4 antibody (antibody, V domains shown)
VH: EVQLQQSGPELVKPGASVKMSCKASGYTFTDYVLHWVKQKPGQGLEWIGYINPYNDGTKYNEKFKGKATLTSDKSSSTAYMELSSLTSEDSAVYYCARGYPAYSGYAMDYWGQGTSVTVSS
VL: DIQMTQTTSSLSASLGDRVTISCRASQDISNYLNWYQQKPDGTVKLLIYYTSRLHSGVPSRFSGSGSGTDYSLTISNLEQEDIATYFCHHGNTLPWTFGGGTK
Q: B1 was tested. Which binding did it give?
A: Its binding is “binds”.

B2: anti-CD40 24A3 human IgG4 antibody (antibody, V domains shown)
VH: DVQLQESGPDLVKPSQSLSLTCTVTGYSITSDYSWHWIRQFPGNKLEWMGYIYYSGSTNYNPSLKSRISITRDTSKNQFFLQLNSVTTEDSATYFCARFYYGYSFFDYWGQGTTLTVSS
VL: QIVLTQSPAFMSASPGEKVTMTCSASSSVSYMHWYQQKSGTSPKRWIYDTSKLASGVPARFSGSGSGTSYSLTISSMEAEDAATYYCQQWSSNPLTFGAGTK
Q: With B2 as the binder, how does the binding read?
A: The binding was “binds”.
